{"source": "PubChem BioAssay AID1259308 (NCATS, 2017)", "screen": "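Genes whose loss raises luciferase production in HEK293 cells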 (primary screen)", "system": "human HEK293 embryonic kidney cells stably expressing firefly luciferase (HEK-CMV-Luc2-Hygro)", "reagent": "single siRNA against human genes, 0.8 pmol siRNA per well", "timing": "72 h", "measured": "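Reporter luminescence and viable-cell signal on separate replicate plates, given as percent of non-targeting control and median/MAD z-scores, plus per-cell luciferase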", "direction": "total luciferase, z-score and total luciferase, % of control: higher = more reporter protein produced", "active means": "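Active when the median/MAD z-score for overall luciferase is greater than 3; a gene was taken forward for validation with new siRNAs if at least two of its three siRNAs passed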", "calls": "active = raised luciferase; inactive = no rise", "note": "The whole screen tested about 59,000 reagents; this is a random part of them. Over the whole deposit, about 1,510 (2.6%) are marked active. 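Calls use total luciferase alone and ignore viability, so some active siRNAs may act by altering cell number.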 Reagents against one gene are numbered here. Not all columns of the deposit are shown. No sequences are given here."}
{"gene symbol": "SPOCK3", "reagent": 1, "total luciferase, z-score": -1, "total luciferase, % of control": 61.9, "Outcome": "inactive"}
{"gene symbol": "SPOCK3", "reagent": 2, "total luciferase, z-score": -1.6, "total luciferase, % of control": 50.1, "Outcome": "inactive"}
{"gene symbol": "SPOCK3", "reagent": 3, "total luciferase, z-score": -0.338, "total luciferase, % of control": 75.2, "Outcome": "inactive"}
{"gene symbol": "CARM1 (coactivator associated arginine methyltransferase 1)", "reagent": 1, "total luciferase, z-score": -0.0663, "total luciferase, % of control": 80.6, "Outcome": "inactive"}
{"gene symbol": "CARM1 (coactivator associated arginine methyltransferase 1)", "reagent": 2, "total luciferase, z-score": 0.165, "total luciferase, % of control": 85.2, "Outcome": "inactive"}
{"gene symbol": "CARM1 (coactivator associated arginine methyltransferase 1)", "reagent": 3, "total luciferase, z-score": 0.374, "total luciferase, % of control": 89.3, "Outcome": "inactive"}
{"gene symbol": "KLF11 (KLF transcription factor 11)", "reagent": 1, "total luciferase, z-score": 1.94, "total luciferase, % of control": 120, "Outcome": "inactive"}
{"gene symbol": "KLF11 (KLF transcription factor 11)", "reagent": 2, "total luciferase, z-score": -0.941, "total luciferase, % of control": 63.2, "Outcome": "inactive"}
{"gene symbol": "KLF11 (KLF transcription factor 11)", "reagent": 3, "total luciferase, z-score": 0.107, "total luciferase, % of control": 84, "Outcome": "inactive"}
{"gene symbol": "TMT1B (thiol methyltransferase 1B)", "reagent": 1, "total luciferase, z-score": 0.786, "total luciferase, % of control": 97.5, "Outcome": "inactive"}
{"gene symbol": "TMT1B (thiol methyltransferase 1B)", "reagent": 2, "total luciferase, z-score": 1.42, "total luciferase, % of control": 110, "Outcome": "inactive"}
{"gene symbol": "TMT1B (thiol methyltransferase 1B)", "reagent": 3, "total luciferase, z-score": 1.1, "total luciferase, % of control": 104, "Outcome": "inactive"}
{"gene symbol": "CILP (cartilage intermediate layer protein)", "reagent": 1, "total luciferase, z-score": 1.68, "total luciferase, % of control": 115, "Outcome": "inactive"}
{"gene symbol": "CILP (cartilage intermediate layer protein)", "reagent": 2, "total luciferase, z-score": -0.284, "total luciferase, % of control": 76.2, "Outcome": "inactive"}
{"gene symbol": "CILP (cartilage intermediate layer protein)", "reagent": 3, "total luciferase, z-score": 0.48, "total luciferase, % of control": 91.4, "Outcome": "inactive"}
{"gene symbol": "VIL1 (villin 1)", "reagent": 1, "total luciferase, z-score": 1.34, "total luciferase, % of control": 109, "Outcome": "inactive"}
{"gene symbol": "VIL1 (villin 1)", "reagent": 2, "total luciferase, z-score": 0.198, "total luciferase, % of control": 85.8, "Outcome": "inactive"}
{"gene symbol": "VIL1 (villin 1)", "reagent": 3, "total luciferase, z-score": -0.647, "total luciferase, % of control": 69, "Outcome": "inactive"}
{"gene symbol": "TUBB3 (tubulin beta 3 class III)", "reagent": 1, "total luciferase, z-score": 2.96, "total luciferase, % of control": 141, "Outcome": "inactive"}
{"gene symbol": "TUBB3 (tubulin beta 3 class III)", "reagent": 2, "total luciferase, z-score": 0.0306, "total luciferase, % of control": 82.5, "Outcome": "inactive"}
{"gene symbol": "TUBB3 (tubulin beta 3 class III)", "reagent": 3, "total luciferase, z-score": 0.315, "total luciferase, % of control": 88.2, "Outcome": "inactive"}

Reprinted from above, 6 entries:
{"gene symbol": "SPOCK3", "reagent": 1, "total luciferase, z-score": -1, "total luciferase, % of control": 61.9, "Outcome": "inactive"}
{"gene symbol": "SPOCK3", "reagent": 2, "total luciferase, z-score": -1.6, "total luciferase, % of control": 50.1, "Outcome": "inactive"}
{"gene symbol": "SPOCK3", "reagent": 3, "total luciferase, z-score": -0.338, "total luciferase, % of control": 75.2, "Outcome": "inactive"}
{"gene symbol": "CARM1 (coactivator associated arginine methyltransferase 1)", "reagent": 1, "total luciferase, z-score": -0.0663, "total luciferase, % of control": 80.6, "Outcome": "inactive"}
{"gene symbol": "CARM1 (coactivator associated arginine methyltransferase 1)", "reagent": 2, "total luciferase, z-score": 0.165, "total luciferase, % of control": 85.2, "Outcome": "inactive"}
{"gene symbol": "CARM1 (coactivator associated arginine methyltransferase 1)", "reagent": 3, "total luciferase, z-score": 0.374, "total luciferase, % of control": 89.3, "Outcome": "inactive"}

The list goes on:
{"gene symbol": "STN1 (STN1 subunit of CST complex)", "reagent": 1, "total luciferase, z-score": 1.71, "total luciferase, % of control": 116, "Outcome": "inactive"}
{"gene symbol": "STN1 (STN1 subunit of CST complex)", "reagent": 2, "total luciferase, z-score": 0.467, "total luciferase, % of control": 91.2, "Outcome": "inactive"}
{"gene symbol": "STN1 (STN1 subunit of CST complex)", "reagent": 3, "total luciferase, z-score": 0.525, "total luciferase, % of control": 92.3, "Outcome": "inactive"}
{"gene symbol": "PRKAB2 (protein kinase AMP-activated non-catalytic subunit beta 2)", "reagent": 1, "total luciferase, z-score": 0.125, "total luciferase, % of control": 84.4, "Outcome": "inactive"}
{"gene symbol": "PRKAB2 (protein kinase AMP-activated non-catalytic subunit beta 2)", "reagent": 2, "total luciferase, z-score": 0.823, "total luciferase, % of control": 98.3, "Outcome": "inactive"}
{"gene symbol": "PRKAB2 (protein kinase AMP-activated non-catalytic subunit beta 2)", "reagent": 3, "total luciferase, z-score": 1.48, "total luciferase, % of control": 111, "Outcome": "inactive"}
{"gene symbol": "STK25 (serine/threonine kinase 25)", "reagent": 1, "total luciferase, z-score": -2.05, "total luciferase, % of control": 41.2, "Outcome": "inactive"}
{"gene symbol": "STK25 (serine/threonine kinase 25)", "reagent": 2, "total luciferase, z-score": -1.04, "total luciferase, % of control": 61.3, "Outcome": "inactive"}
{"gene symbol": "STK25 (serine/threonine kinase 25)", "reagent": 3, "total luciferase, z-score": 2.1, "total luciferase, % of control": 124, "Outcome": "inactive"}
{"gene symbol": "PLN (phospholamban)", "reagent": 1, "total luciferase, z-score": 0.54, "total luciferase, % of control": 92.6, "Outcome": "inactive"}
{"gene symbol": "PLN (phospholamban)", "reagent": 2, "total luciferase, z-score": 1.56, "total luciferase, % of control": 113, "Outcome": "inactive"}
{"gene symbol": "PLN (phospholamban)", "reagent": 3, "total luciferase, z-score": 2.34, "total luciferase, % of control": 128, "Outcome": "inactive"}
